Experimental data taken from patent US9580487B2 (Zealand Pharma A/S, priority 2005, dated 2017).

Experiment: general procedure: Fmoc solid-phase peptide synthesis; TentaGel S RAM, TentaGel S RAM-Lys(Boc)Fmoc, TentaGel S PHB, TentaGel S PHB Lys(Boc)Fmoc, 0.22-0.31 mmol/g; preformed Fmoc-protected HOBt esters (3 eq.)
[1] = whole synthesis, RP-HPLC, scale of the general procedure 1 g resin, 0.22-0.31 mmol/g, trifluoroacetate salt
[2] = whole synthesis, RP-HPLC 220 nm, scale of the general procedure 1 g resin, 0.22-0.31 mmol/g, trifluoroacetate salt

| Substance | final purity (method not given) [1] [%] | other results |
| --- | --- | --- |
| H-HGDGSFIDELATILDNLAARDFIAWLIQTKKKKKKK-NH2 | 95 |  |
| H-HGDGSFSDELATILDALAARDFIAWLIATKITD-NH2 | 95 |  |
| H-HGDGSFSDELATILDNLAARDFIAWLIATKITD-NH2 | 92 |  |
| H-HGDGSFSDELATILDNLAARDFIAWLIQTK-NH2 (C-terminal amide) | 91 |  |
| H-HGDGSFSDELATILDNLAARDFIAWLIQTKITD-NH2 (C-terminal amide) | 95 |  |
| H-HGDGSFSDELATILDNLAARDFIAWLIQTKITDKKKKKK-NH2 (C-terminal amide) | 92 |  |
| H-HGDGSFSDELKTILDNLAARDFIAWLIQTK-NH2 (C-terminal amide) | 94 |  |
| H-HGDGSFSDELKTILDNLAARDFIAWLIQTKKKKKKK-NH2 (C-terminal amide) | 93 |  |
| H-HGDGSFSDELNTILDNLAARDFIAWLIQTKITDKKKKKK-NH2 (C-terminal amide) | 93 |  |
| H-HGDGSFSDELSTILDNLAARDFIAWLIQTK-NH2 (C-terminal amide) | 94 |  |
| H-HGDGSFSDELSTILDNLAARDFIAWLIQTKKKKKKK-NH2 (C-terminal amide) | 92 |  |
| H-HGDGSFSDEMNTILDNLAARDFINWLIQTKITD-NH2 | 95 | final HPLC purity [2]: 96% |
| H-HGDGSFSSELATILDNLAARDFIAWLIQTK-NH2 (C-terminal amide) | 92 |  |
| H-HGDGSFSSELATILDNLAARDFIAWLIQTKKKKKKK-NH2 (C-terminal amide) | 92 |  |
| H-HGDGSFSSELSTILDNLAARDFIAWLIQTK-NH2 (C-terminal amide) | 97 |  |
| H-HGDGSFSSELSTILDNLAARDFIAWLIQTKKKKKKK-NH2 (C-terminal amide) | 95 |  |
| H-HGDGSFTDELATILDNLAARDFIAWLIQTK-NH2 (C-terminal amide) | 90 |  |
| H-HGDGSFTDELKTILDNLAARDFIAWLIQTK-NH2 (C-terminal amide) | 92 |  |
| H-HGDGSFTDELKTILDNLAARDFIAWLIQTKKKKKKK-NH2 (C-terminal amide) | 94 |  |
| H-HGDGSFTDELSTILDNLAARDFIAWLIQTK-NH2 (C-terminal amide) | 94 |  |
| H-HGDGSFTDELSTILDNLAARDFIAWLIQTKKKKKKK-NH2 (C-terminal amide) | 93 |  |
| H-HGDGSFTSELATILDNLAARDFIAWLIQTK-NH2 (C-terminal amide) | 94 | final HPLC purity [2]: 94% |
| H-HGDGSFTSELATILDNLAARDFIAWLIQTKKKKKKK-NH2 (C-terminal amide) | 94 | final HPLC purity [2]: 94% |
| H-HGDGSFTSELKTILDNLAARDFIAWLIQTK-NH2 (C-terminal amide) | 97 |  |
| H-HGDGSFTSELKTILDNLAARDFIAWLIQTKKKKKKK-NH2 (C-terminal amide) | 95 |  |

| Substance | final purity (method not given) [1] [%] | other results |
| --- | --- | --- |
| H-HGDGSFTSELSTILDNLAARDFIAWLIQTK-NH2 (C-terminal amide) | 94 |  |
| H-HGDGSFTSELSTILDNLAARDFIAWLIQTKKKKKKK-NH2 (C-terminal amide) | 94 |  |
| H-HGDGSPSDELATILDALAARDFIAWLIATKITD-NH2 | 94 |  |
| H-HGEGSFSDELATILDALAARDFIAWLIATKITD-NH2 | 95 |  |
| H-HGEGSFSDELATILDNLAARDFIAWLIQTKITD-NH2 | 91 |  |
| H-HGEGSFSDELKTILDALAARDFIAWLIATKITD-NH2 (C-terminal amide) | 90 |  |
| H-HGEGSFSDELKTILDALAARDFIAWLIATKITDKKKKKK-NH2 (C-terminal amide) | 93 |  |
| H-HGEGSFSDELSTILDALAARDFIAWLIATKITD-NH2 | 96 |  |
| H-HGEGSFSDELSTILDALAARDFIAWLIATKITDKKKKKK-NH2 | 90 |  |
| H-HGEGSFSSELATILDALAARDFIAWLIATKITD-NH2 (C-terminal amide) | 90 | final HPLC purity [2]: 90% |
| H-HGEGSFSSELATILDALAARDFIAWLIATKITDKKKKKK-NH2 (C-terminal amide) | 97 | final HPLC purity [2]: 97% |
| H-HGEGSFSSELSTILDALAARDFIAWLIATKITD-NH2 (C-terminal amide) | 96 | final HPLC purity [2]: 96% |
| H-HGEGSFSSELSTILDALAARDFIAWLIATKITDKKKKKK-NH2 (C-terminal amide) | 90 | final HPLC purity (purification step, RP-HPLC, acetate salt): 97%; final HPLC purity [2]: 90% |
| H-HGEGTFSDELATILDALAARDFIAWLIATKITDKKKKKK-NH2 (C-terminal amide) | 96 |  |
| H-HGEGTFSDELATILDALAARIFIAWLIATKKKKKKK-NH2 | 91 |  |
| H-HGEGTFSDELKTILDALAARDFIAWLIATKITD-NH2 | 92 |  |
| H-HGEGTFSDELKTILDALAARDFIAWLIATKITDKKKKKK-NH2 (C-terminal amide) | 95 |  |
| H-HGEGTFSDELSTILDALAARDFIAWLIATKITD-NH2 (C-terminal amide) | 96 |  |
| H-HGEGTFSDELSTILDALAARDFIAWLIATKITDKKKKKK-NH2 (C-terminal amide) | 93 |  |
| H-HGEGTFSSELATILDALAARDFIAWLIATKITD-NH2 (C-terminal amide) | 94 | final HPLC purity [2]: 94% |
| H-HGEGTFSSELATILDALAARDFIAWLIATKITDKKKKKK-NH2 (C-terminal amide) | 90 | final HPLC purity (purification step, RP-HPLC, chloride salt): 93%; final HPLC purity [2]: 90% |
| H-HGEGTFSSELKTILDALAARDFIAWLIATKITD-NH2 | 99 |  |
| H-HGEGTFSSELKTILDALAARDFIAWLIATKITDKKKKKK-NH2 (C-terminal amide) | 95 |  |
| H-HGEGTFSSELSTILDALAARDFIAWLIATKITD-NH2 (C-terminal amide) | 97 |  |
| H-HGEGTFSSELSTILDALAARDFIAWLIATKITDKKKKKK-NH2 (C-terminal amide) | 90 |  |
